In patent US20040037780A1, “Respiratory delivery for gene therapy and lentiviral delivery particle” (priority 2001, published 2004):
At least one structure is not confirmed: it was looked up by name or label, or the drawing left a doubt.

Test system: nasal airway epithelium
Assay: Adenoviral (AdlLacZ) LacZ gene transfer into mouse nasal airway after detergent pre-treatment
Format: in vivo, mice
Conditions: 4 μl detergent (SDS 0.25%, ZWIT 0.14%, DEOXY 0.17%) 1 h before AdlLacZ 1×10^9 pfu; 3 days; FIG. 7
Method: The detergents tested were Sodium n-dodecyl sulfate (SDS), (an anionic detergent) at 0.25%, Zwittergent 3-14: N-Tetradecylsulfobetaine (ZWIT) (a zwitterionic detergent) at 0.14%, Cetyltrimethylammonium bromide (CTAB) (an ionic detergent) at 0.15%, Deoxycholic Acid (DEOXY) (an ionic detergent) at 0.17%, with phosphate buffered saline as a control.
Detergents were made up fresh to nominated concentrations. A single 4 μl dose was used per mouse (all were approximately 20 gm body weight). An Adenoviral vector (AdlLacZ) dose of 1×10^9 pfu in 20 μl. Mice were anaesthetised with Xylamine/Ketamine i.m.; then suspended vertically (hanging on dorsal incisor teeth). The detergent dose was instilled into the nostril opening in one bolus via a micropipettor.
The mouse was set aside for one hour; re-anaesthetised as needed, 1 hour later 20 μl of viral vector was instilled into the same nostril. The mouse was allowed to recover and returned to caging. Three days later the mice were killed with CO2 excess, head removed and the nasal airways were flushed with fixative. These were taken through standard “X-gal” processing to reveal blue stained cells that represent LacZ gene transfer. Cells were processing to wax sections and stained with Safranin-O or haemotoxylin/oesin. Stained cells present along the perimeter of 3 standard cross-sections in the treated nasal airway were counted. […]

C[C@H](CCC(=O)O)[C@H]1CC[C@H]2[C@@H]3CC[C@@H]4C[C@H](O)CC[C@]4(C)[C@H]3C[C@H](O)[C@]12C [Deoxy, Deoxycholic Acid]
numbers of transductants over the control PBS, respiratory cells: considerable increase in numbers of transductants
